Reference: PubChem BioAssay AID1259254 (NCATS, 2017)
Test: 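Gene knock-downs that lead to re-replication, shown by excess G2 DNA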 (primary screen). System: human HCT116 colorectal cancer cells. Reagent: single siRNA against human genes. Duration: 3 days. Detection: 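Imaged Hoechst DNA stain sorts each cell into a cycle phase by DNA amount; per plate, G2 fraction set to 0% for non-targeting and 100% for GMNN siRNA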. Reading the numbers: G2 robust z-score and G2 cells, % of GMNN control: higher = more G2 cells, more excess DNA replication; raw share of cells in G2: higher = larger share of cells with G2 DNA content. Rule for the call: 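An siRNA counts as active if its G2 robust z-score lies at least 5 MADs above the screen median; here such calls match roughly 38% of GMNN control or more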.
Shown is a random part of about 59,000 reagents tested. In the full data, about 1,550 (2.6%) were called active. 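G2 share is only a proxy for re-replication; each gene was hit by three separate siRNAs, and active genes were retested.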 The raw values are shown without normalisation. Entries without a mark were called inactive. Reagents against one gene are numbered here. Not given: the amount of reagent.

Target gene | siRNA no. | G2 robust z-score | G2 cells, % of GMNN control | raw share of cells in G2 (%)
MSMB (microseminoprotein beta) | 1 | -0.273 | 1.05 | 5.42
MSMB (microseminoprotein beta) | 2 | -0.678 | -1.81 | 3.51
MSMB (microseminoprotein beta) | 3 | -0.155 | 1.88 | 4.03
NBPF1 (NBPF member 1) | 1 | 2.58 | 21.1 | 12.6
NBPF1 (NBPF member 1) | 2 | -0.906 | -3.41 | 2.73
NBPF1 (NBPF member 1) | 3 | -0.228 | 1.37 | 3.57
ZNF211 (zinc finger protein 211) | 1 | -0.582 | -1.13 | 3.15
ZNF211 (zinc finger protein 211) | 2 | 0.249 | 4.72 | 8.09
ZNF211 (zinc finger protein 211) | 3 | -0.551 | -0.909 | 2.96
AGA (aspartylglucosaminidase) | 1 | -0.985 | -3.96 | 4.18
AGA (aspartylglucosaminidase) | 2 | -0.223 | 1.4 | 5.4
AGA (aspartylglucosaminidase) | 3 | -0.913 | -3.45 | 2.62
OR5L2 (olfactory receptor family 5 subfamily L member 2) | 1 | 9.04 (active) | 66.6 | 29.5
OR5L2 (olfactory receptor family 5 subfamily L member 2) | 2 | -0.566 | -1.01 | 3.5
OR5L2 (olfactory receptor family 5 subfamily L member 2) | 3 | -0.718 | -2.08 | 2.57
JAK3 (Janus kinase 3) | 1 | -0.336 | 0.601 | 5.81
JAK3 (Janus kinase 3) | 2 | -0.448 | -0.187 | 5.35
JAK3 (Janus kinase 3) | 3 | 0.0913 | 3.61 | 5.3
USE1 (unconventional SNARE in the ER 1) | 1 | 0.264 | 4.82 | 4.68
USE1 (unconventional SNARE in the ER 1) | 2 | -0.996 | -4.04 | 2.97
USE1 (unconventional SNARE in the ER 1) | 3 | -0.0928 | 2.31 | 5.1
LMNB1 (lamin B1) | 1 | -1.02 | -4.22 | 3.73
LMNB1 (lamin B1) | 2 | 1.13 | 10.9 | 6.79
LMNB1 (lamin B1) | 3 | 1.04 | 10.3 | 9.56
CLIP2 (CAP-Gly domain containing linker protein 2) | 1 | -0.225 | 1.38 | 5.75
CLIP2 (CAP-Gly domain containing linker protein 2) | 2 | 0.359 | 5.49 | 6.07
CLIP2 (CAP-Gly domain containing linker protein 2) | 3 | -0.628 | -1.45 | 2.84
LOC644634 | 1 | -0.885 | -3.26 | 2.4
LOC644634 | 2 | 2.25 | 18.8 | 10
LOC644634 | 3 | -1.3 | -6.15 | 1.35
SETD9 (SET domain containing 9) | 1 | 0.652 | 7.55 | 7.02
SETD9 (SET domain containing 9) | 2 | -0.583 | -1.14 | 2.74
SETD9 (SET domain containing 9) | 3 | -0.874 | -3.18 | 1.43
HADHA | 1 | -0.375 | 0.332 | 5.16
HADHA | 2 | -0.151 | 1.9 | 6.41
HADHA | 3 | 0.591 | 7.12 | 6.81
CXCL3 (C-X-C motif chemokine ligand 3) | 1 | 0.5 | 6.49 | 8.34
CXCL3 (C-X-C motif chemokine ligand 3) | 2 | -0.334 | 0.621 | 4.31
CXCL3 (C-X-C motif chemokine ligand 3) | 3 | 3.29 | 26.1 | 13.7

The list goes on; the last 2 above are carried over.
Target gene | siRNA no. | G2 robust z-score | G2 cells, % of GMNN control | raw share of cells in G2 (%)
CXCL3 (C-X-C motif chemokine ligand 3) | 2 | -0.334 | 0.621 | 4.31
CXCL3 (C-X-C motif chemokine ligand 3) | 3 | 3.29 | 26.1 | 13.7
SNW1 (SNW domain containing 1) | 1 | 1.4 | 12.8 | 11.5
SNW1 (SNW domain containing 1) | 2 | 2.04 | 17.3 | 9.95
SNW1 (SNW domain containing 1) | 3 | -0.0947 | 2.3 | 4.65
TSEN54 (tRNA splicing endonuclease subunit 54) | 1 | 0.769 | 8.37 | 6.69
TSEN54 (tRNA splicing endonuclease subunit 54) | 2 | 0.676 | 7.73 | 6.03
TSEN54 (tRNA splicing endonuclease subunit 54) | 3 | 0.0739 | 3.49 | 4.33
DMRTA1 (DMRT like family A1) | 1 | -0.491 | -0.487 | 5.44
DMRTA1 (DMRT like family A1) | 2 | -0.554 | -0.933 | 4.02
DMRTA1 (DMRT like family A1) | 3 | 0.173 | 4.19 | 5.75
C16orf82 (chromosome 16 open reading frame 82) | 1 | -1.19 | -5.38 | 1.68
C16orf82 (chromosome 16 open reading frame 82) | 2 | -0.471 | -0.348 | 2.84
C16orf82 (chromosome 16 open reading frame 82) | 3 | 0.685 | 7.79 | 5.23
MAP2K6 (mitogen-activated protein kinase kinase 6) | 1 | -0.293 | 0.907 | 5.91
MAP2K6 (mitogen-activated protein kinase kinase 6) | 2 | -0.547 | -0.878 | 5.11
MAP2K6 (mitogen-activated protein kinase kinase 6) | 3 | -0.629 | -1.46 | 3.51
CENPK (centromere protein K) | 1 | 0.778 | 8.44 | 8.26
CENPK (centromere protein K) | 2 | 0.196 | 4.35 | 6.56
CENPK (centromere protein K) | 3 | 0.203 | 4.39 | 3.86
SLC35G2 | 1 | -0.78 | -2.52 | 3.4
SLC35G2 | 2 | -0.534 | -0.79 | 3.96
SLC35G2 | 3 | -0.885 | -3.26 | 1.49
LAMA4 (laminin subunit alpha 4) | 1 | -0.465 | -0.304 | 3.34
LAMA4 (laminin subunit alpha 4) | 2 | 0.772 | 8.4 | 8.78
LAMA4 (laminin subunit alpha 4) | 3 | -0.0618 | 2.53 | 4.03
GPATCH8 (G-patch domain containing 8) | 1 | 0.914 | 9.4 | 8.67
GPATCH8 (G-patch domain containing 8) | 2 | 2.67 | 21.8 | 13.1
GPATCH8 (G-patch domain containing 8) | 3 | 2.11 | 17.8 | 9.84
CDH23 (cadherin related 23) | 1 | -0.129 | 2.06 | 6.5
CDH23 (cadherin related 23) | 2 | -0.113 | 2.17 | 5.12
CDH23 (cadherin related 23) | 3 | 1.69 | 14.9 | 9.63
